The target of this experiment is SAFB2 RRM domain (404-485) (human) (UniProt Q14151). Description: NMR 15N relaxation (total correlation time); RRM alone; T1 and T2 at 600 MHz, 298 K; 20 mM BisTris, 150 mM NaCl, 2 mM TCEP, pH 6.5; both purified.

Chains of the proteins cited; added tags and fusions are not shown. Lines headed by an entry give the natural chain unless they say otherwise; changes in a name come on top. A line that says so, or that is headed by a name, gives the form on record, which may keep a tag or linker.
SAFB2 RRM domain (404-485) (Q14151, form named): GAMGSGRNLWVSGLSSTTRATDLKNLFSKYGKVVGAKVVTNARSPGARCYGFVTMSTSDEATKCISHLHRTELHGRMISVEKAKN

These are yes or no findings as the source states them, for the method shown.

The source of these data is paper PMC9958909, “Insight into the Structural Basis for Dual Nucleic Acid—Recognition by the Scaffold Attachment Factor B2 Protein”.

On to “SAFB2 RRM domain (404-485) (from UniProt Q14151 404-485) (domain or fragment)”, for which the binding result is recorded as “no binding”.
